The record followed here is PMC7819943, “Rice protein-binding microarrays: a tool to detect cis-acting elements near promoter regions in rice”.

Some of the results follow.

This experiment deals with T1, OsSMF1 (Oryza sativa, UniProt Q6ZLB0 1-436).
T1 sequence: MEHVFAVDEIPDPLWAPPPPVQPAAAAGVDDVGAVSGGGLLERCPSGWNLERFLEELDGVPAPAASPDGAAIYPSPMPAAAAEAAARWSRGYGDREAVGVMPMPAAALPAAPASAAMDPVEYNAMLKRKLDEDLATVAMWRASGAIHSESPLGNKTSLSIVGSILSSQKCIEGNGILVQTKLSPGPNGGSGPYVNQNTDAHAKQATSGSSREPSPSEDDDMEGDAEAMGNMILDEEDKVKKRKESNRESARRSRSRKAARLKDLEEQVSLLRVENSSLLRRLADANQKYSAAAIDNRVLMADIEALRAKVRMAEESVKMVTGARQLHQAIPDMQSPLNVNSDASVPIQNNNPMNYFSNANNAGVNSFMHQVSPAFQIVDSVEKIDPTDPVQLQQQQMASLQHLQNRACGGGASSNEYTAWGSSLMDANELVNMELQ
Kind of experiment: protein-binding microarray (RPBM); PBS, 2% BSA, 51.3 ng/ul salmon testes DNA, 50 uM zinc acetate, 200 nM TF, 25 C, 1 h; high values mean tight binding. The settings on record: protein: recombinant; tags: N-terminal polyhistidine and DsRed monomer fusion (pET32a); chain copies: 2; label: CyDye5-dUTP incorporated in the synthesized complementary strand; 3' TTTTT single-stranded linker to array surface; dsDNA, one strand shown. The essentials: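 An Axon 4000B scanner gave the binding signal as per-feature fluorescence intensity in arbitrary units. This followed washing of a custom Agilent array that had been incubated for 1 h at 25 °C with 200 nM protein in PBS, 2% BSA, salmon testes DNA and 50 µM zinc acetate. The proteins were transcription factors fused at the N-terminus to polyhistidine and DsRed, expressed in E. coli BL21-CodonPlus and purified on Ni–NTA.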
Turning to “CAAAACAATCAACGCGTCAACATGGTGATGCTCTGTTTGACGGAGTCACCTAGTGCAG”, the binding signal is 4080 fluorescence intensity (a.u.).

Consider “CTCCCCTCTCTTGCTGTCTCTGCTTGCTGCTGCTGCTGCTCGGAGTCACCTAGTGCAG”, for which the binding signal is 22700 fluorescence intensity (a.u.).

For “TATACTATCTGTAAATCCTTAGTACACAGCAGGCAGCAGGCGGAGTCACCTAGTGCAG”, the binding signal is 3280 fluorescence intensity (a.u.).

With “CGGAGAAGGCGCTGACCACACGCGGCGCCAACTCCTCCACCGGAGTCACCTAGTGCAG”, the binding signal was 3360 fluorescence intensity (a.u.).

As to “CGTACACCATAGGGACATATATCTCTCTGACGTGTGGGTCCGGAGTCACCTAGTGCAG”, the binding signal is 8470 fluorescence intensity (a.u.).

For “TTTCAAGTAGATCGGCTCCTACTCATCGATGAACTCCCACCGGAGTCACCTAGTGCAG”, the binding signal was 3960 fluorescence intensity (a.u.).

Consider “AGGCTACGAAACTTTCGTAGAAGCCTACATAACGAAAAGGCGGAGTCACCTAGTGCAG”, for which the binding signal was 3670 fluorescence intensity (a.u.).

Take “CACCTACCCGCGTCCACGCGGCCCACCTGGCGGCGCGAGGCGGAGTCACCTAGTGCAG”: the binding signal was 3180 fluorescence intensity (a.u.).

In the case of “GTGCTTCGGCGGCAGCGCCAGCGTCACGAACTGCTCCTCCCGGAGTCACCTAGTGCAG”, the binding signal was 3810 fluorescence intensity (a.u.).

For the sequence “GCCGTTTCTCCGCGTTCGATTTCGTTGGTTGATGCGTGGGCGGAGTCACCTAGTGCAG”, the binding signal was 3770 fluorescence intensity (a.u.).

As to “GGTCATCTGGTGCATACACGTAACACGTCAGGACAACCACCGGAGTCACCTAGTGCAG”, the binding signal was 8620 fluorescence intensity (a.u.).

On to “CGATCCTATGCGTCGTTGGCAGTTTGGCACTAAATCGACCCGGAGTCACCTAGTGCAG”, for which the binding signal was 4230 fluorescence intensity (a.u.).

On to “CGCGACGCCCAGCTCCTGTGATGTCATGTCATGGTCGTCTCGGAGTCACCTAGTGCAG”, for which the binding signal was 9530 fluorescence intensity (a.u.).

For the sequence “TAACTAATAAAATGTGACAGGTCATGGCAATCTTAGATAGCGGAGTCACCTAGTGCAG”, the binding signal is 5710 fluorescence intensity (a.u.).

With “ATGTTGTCATGACATGTTACGGTAATATTAGTTGGTGTCCCGGAGTCACCTAGTGCAG”, the binding signal was 4360 fluorescence intensity (a.u.).

On to “CCCTCTAACTTTACTTAAAGAGGAGACTCATCCCAACCAACGGAGTCACCTAGTGCAG”, for which the binding signal was 5150 fluorescence intensity (a.u.).

Consider “CATCGCATCTGCTCCACGTGTGCGCTATCGCGGCTGCGGCCGGAGTCACCTAGTGCAG”, for which the binding signal was 13400 fluorescence intensity (a.u.).

As for “GCGCGCCTGCGCGCCTCTCTCCCGCAGTCCCGCCCGCCCGCGGAGTCACCTAGTGCAG”, the binding signal was 3470 fluorescence intensity (a.u.).

For “ACATGCCGCTAGGAAATATCCCATCCGGTGCCTGTCTAGACGGAGTCACCTAGTGCAG”, the binding signal is 3150 fluorescence intensity (a.u.).

Consider “GTCTGGTGACATCCTACGATAGCCCACGTGTACCAAAACCCGGAGTCACCTAGTGCAG”, for which the binding signal is 10000 fluorescence intensity (a.u.).

Take “TTTATCCCCACATAAAACAAGTAGCTTAACGTGTGTGTATCGGAGTCACCTAGTGCAG”: the binding signal is 3360 fluorescence intensity (a.u.).

On to “ATCCCCGGTCATCTCGCCTCGTCTCGTCCCGTCCCTGCGCCGGAGTCACCTAGTGCAG”, for which the binding signal is 3460 fluorescence intensity (a.u.).

“CGACTTCGCGCTCATGTCCATCGGCGCCGTCGTGTCGCCGCGGAGTCACCTAGTGCAG”: the binding signal was 4000 fluorescence intensity (a.u.).

As for “AAAAGTTACACGTCTAATGTTGGATTCTTCCAGAGCACTGCGGAGTCACCTAGTGCAG”, the binding signal was 3930 fluorescence intensity (a.u.).

For “TGCTCTTCCACATCAATGGACCACAAAATTCATTTGTGGACGGAGTCACCTAGTGCAG”, the binding signal is 3220 fluorescence intensity (a.u.).

“CTTTCCAGTTCCTTGTTTCTATCACACTCACTAGGACCAACGGAGTCACCTAGTGCAG”: the binding signal is 32000 fluorescence intensity (a.u.).

As for “GTCAGCGTGAGACCGATATGGCCAGCTAAGTCAGCGTGAGCGGAGTCACCTAGTGCAG”, the binding signal is 4000 fluorescence intensity (a.u.).

In the case of “GGGAAGGGCGCCGCGGCGGTGGCCGCGGAGGTGGAGCCGTCGGAGTCACCTAGTGCAG”, the binding signal was 4000 fluorescence intensity (a.u.).

For “AAGTCTGCAGTTGCACTGGGAGTTGACAAAGAAGATGACGCGGAGTCACCTAGTGCAG”, the binding signal was 3550 fluorescence intensity (a.u.).

In the case of “TCCTTCAAGAATCCTATACTTCTTAAATCAGGAACATAATCGGAGTCACCTAGTGCAG”, the binding signal was 8910 fluorescence intensity (a.u.).

For “TTTGTACTCCCTCCGTTTCACAATGTGAGTCATTCTAACACGGAGTCACCTAGTGCAG”, the binding signal is 5260 fluorescence intensity (a.u.).

Take “GGGCAGTTTCGTTGATGTGGCGCCTACGTGGCGATGTTGACGGAGTCACCTAGTGCAG”: the binding signal was 31300 fluorescence intensity (a.u.).

For the sequence “CCTCCTCACGCCTCACACCGCTCAGTGACCTCGCAAACCACGGAGTCACCTAGTGCAG”, the binding signal is 13900 fluorescence intensity (a.u.).

Take “CTTCAAGGCTTTGTGGTGACACTGATATCTCTCTAGTCTCCGGAGTCACCTAGTGCAG”: the binding signal is 5100 fluorescence intensity (a.u.).

As for “GGTGGGGTGAGCGTGTGTGCGGCGCTAGGGTTCGCGAGGGCGGAGTCACCTAGTGCAG”, the binding signal was 3540 fluorescence intensity (a.u.).

Take “ATCGTCGCGGGGCCGCCGACGGCGCGCGGTGTGGCCGACGCGGAGTCACCTAGTGCAG”: the binding signal was 6480 fluorescence intensity (a.u.).

For the sequence “AAATTTAACTTTTACATCGCGTCCCACCGTCGCCGCGCTCCGGAGTCACCTAGTGCAG”, the binding signal is 3430 fluorescence intensity (a.u.).

“TAGTATCAGCTGCTGACAGATAGCTCGAGAGTGTACCTTACGGAGTCACCTAGTGCAG”: the binding signal was 3890 fluorescence intensity (a.u.).

As for “AGGTTGAGGTTCTCCCTCCACGTCCTCTTGGGTGGCTTCTCGGAGTCACCTAGTGCAG”, the binding signal is 4270 fluorescence intensity (a.u.).

As for “CATCATCACTGCTCGAGTCGAGAGTCGAGTGTCGAGACATCGGAGTCACCTAGTGCAG”, the binding signal is 9360 fluorescence intensity (a.u.).

Take “TTCGATATATTACGCCCAAGGGGAGCAAACACGTATACTGCGGAGTCACCTAGTGCAG”: the binding signal is 27900 fluorescence intensity (a.u.).

As to “AAAACGATTACACTATACACTATTGAGAATGAGTTCTTTACGGAGTCACCTAGTGCAG”, the binding signal is 29500 fluorescence intensity (a.u.).

For “GAAAGACTTGCAAGTTGCCATCAATGGCATCGAAAGATGCCGGAGTCACCTAGTGCAG”, the binding signal is 7840 fluorescence intensity (a.u.).

In the case of “GCTCAATCCCCGACCACCACGTGGCATCCTCGATGCCTCGCGGAGTCACCTAGTGCAG”, the binding signal is 24000 fluorescence intensity (a.u.).

Take “GATGAGGCTCCGAGTCGTCTGATGGCCACGTTTATCGGTTCGGAGTCACCTAGTGCAG”: the binding signal was 4430 fluorescence intensity (a.u.).

As for “GCGTCAAACTGCTACGCGTGATTCTTAATTCTTCTTGCTCCGGAGTCACCTAGTGCAG”, the binding signal was 30900 fluorescence intensity (a.u.).

“AGCGCTGGGTACACCCACGACGGGCCTTCCGGACGCGGTGCGGAGTCACCTAGTGCAG”: the binding signal was 19000 fluorescence intensity (a.u.).

For “ATCTAGCGACGAGAAGAGAGGAAGGGAGGGAGGCGTCACGCGGAGTCACCTAGTGCAG”, the binding signal is 3830 fluorescence intensity (a.u.).

Consider “AGCGATCTCTTTAGTAGGTATGTGCCATGTCACCGTTCACCGGAGTCACCTAGTGCAG”, for which the binding signal was 15900 fluorescence intensity (a.u.).

For the sequence “GCCGCAAATCCAGGCCCCAAGCGGGATGCCACGCCGAGCCCGGAGTCACCTAGTGCAG”, the binding signal is 3530 fluorescence intensity (a.u.).

“GTTCAATTCCTGCTGGATGCACGTGAACCGGAACGTTCCACGGAGTCACCTAGTGCAG”: the binding signal is 52000 fluorescence intensity (a.u.).

As for “CAGCAGCAGCAGCAGCCGCCGCCTCCGTCCGTCCGTCCGTCGGAGTCACCTAGTGCAG”, the binding signal was 3230 fluorescence intensity (a.u.).

Turning to “GCCCATATAGCTTCTGCGAGCCATGTGGCAAGTATCAAAGCGGAGTCACCTAGTGCAG”, the binding signal is 3630 fluorescence intensity (a.u.).

Regarding “TTTATGATAACTTTGAGTCATATCATTTTGGTAAGTCCTACGGAGTCACCTAGTGCAG”, the binding signal is 3140 fluorescence intensity (a.u.).
